Some of the results follow. Single values are uncertain, as repeats are few or missing.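 Imaging used 1,536-well plates; nuclei positive for cleaved PARP by antibody were divided by total DNA-stained nuclei to yield the apoptosis fraction. Doses for screening kept most cells viable, and cell lines differ markedly in resting and induced cleaved-PARP levels.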
What follows are molecules tested on IPC-298 (assay: cleaved PARP positive nuclei fraction relative to DMSO control; melanoma cells; higher = more apoptosis). Conditions: library dose: low library concentration; 72 h.
With COc1cc([C@@H]2c3cc4c(cc3[C@@H](O[C@@H]3O[C@@H]5CO[C@@H](C)O[C@H]5[C@H](O)[C@H]3O)[C@H]3COC(=O)[C@H]23)OCO4)cc(OC)c1O [etoposide] + CO[C@H]1C[C@@H]2CC[C@@H](C)[C@@](O)(O2)C(=O)C(=O)N2CCCC[C@H]2C(=O)O[C@H]([C@H](C)C[C@@H]2CC[C@@H](OCCO)[C@H](OC)C2)CC(=O)[C@H](C)/C=C(\C)[C@@H](O)[C@@H](OC)C(=O)[C@H](C)C[C@H](C)/C=C/C=C/C=C/1C [everolimus] (first compound 0.02 µM, partner dose 0.02 µM) the “cleaved PARP positive nuclei fraction” value was 126%.
For Cc1cn(-c2cc(NC(=O)c3ccc(C)c(Nc4nccc(-c5cccnc5)n4)c3)cc(C(F)(F)F)c2)cn1 [nilotinib] + Nc1cccc2c1CN(C1CCC(=O)NC1=O)C2=O [lenalidomide] (first compound 0.2 µM, partner dose 1 µM), the “cleaved PARP positive nuclei fraction” value was 130%.
In the case of Cc1ccc(Nc2nccc(N(C)c3ccc4c(C)n(C)nc4c3)n2)cc1S(N)(=O)=O [Pazopanib] + CNC(=O)c1cc(Oc2ccc(NC(=O)Nc3ccc(Cl)c(C(F)(F)F)c3)cc2)ccn1 [sorafenib] (first compound 0.4 µM, partner dose 0.4 µM), the “cleaved PARP positive nuclei fraction” value is reported as 57.3%.
For O=c1[nH]nc(Sc2ncc([N+](=O)[O-])s2)n1-c1ccc2c(c1)OCCO2 + CS(=O)(=O)c1ccc(C(=O)Nc2ccc(Cl)c(-c3ccccn3)c2)c(Cl)c1 [vismodegib] (first compound 0.2 µM, partner dose 1 µM), the “cleaved PARP positive nuclei fraction” value was 173%.
